# Measured values taken from the supplement of paper PMC4604168 (melanoma cell lines).
# This is one part of the list. Many values rest on one well or one pass, so single values are uncertain.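 Cells were imaged in 1,536-well plates, and nuclei stained with an antibody against cleaved PARP were counted against all DNA-stained nuclei to give the apoptosis fraction. Screening doses were chosen to leave most cells alive, and resting and induced cleaved-PARP levels differ strongly between cell lines.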
# Assays:
# Assay in all cases: cleaved PARP positive nuclei fraction relative to DMSO control; melanoma cells; higher = more apoptosis
# Settings in all cases: library dose: low library concentration; 72 h
# MZ2-MEL = test system: MZ2-MEL
# MeWo = test system: MeWo
# RPMI7951 = test system: RPMI7951
# RVH-421 = test system: RVH-421
# SkMel28 = test system: SkMel28
# SkMel2 = test system: SkMel2
# SkMel30 = test system: SkMel30
# UACC62 = test system: UACC62
# WM115 = test system: WM115
# WM1716 = test system: WM1716
# WM1745 = test system: WM1745
# WM3526 = test system: WM3526
# WM3619 = test system: WM3619
# WM451Lu = test system: WM451Lu
Compound,cleaved PARP positive nuclei fraction (MZ2-MEL) [%],cleaved PARP positive nuclei fraction (MeWo) [%],cleaved PARP positive nuclei fraction (RPMI7951) [%],cleaved PARP positive nuclei fraction (RVH-421) [%],cleaved PARP positive nuclei fraction (SkMel28) [%],cleaved PARP positive nuclei fraction (SkMel2) [%],cleaved PARP positive nuclei fraction (SkMel30) [%],cleaved PARP positive nuclei fraction (UACC62) [%],cleaved PARP positive nuclei fraction (WM115) [%],cleaved PARP positive nuclei fraction (WM1716) [%],cleaved PARP positive nuclei fraction (WM1745) [%],cleaved PARP positive nuclei fraction (WM3526) [%],cleaved PARP positive nuclei fraction (WM3619) [%],cleaved PARP positive nuclei fraction (WM451Lu) [%]
"CNC(=O)c1cc(Oc2ccc(NC(=O)Nc3ccc(Cl)c(C(F)(F)F)c3)cc2)ccn1 [sorafenib] + Nc1nc(F)nc2c1ncn2[C@@H]1O[C@H](CO)[C@@H](O)[C@@H]1O [fludarabine] (first compound 0.4 µM, partner dose 0.2 µM)",91.8,200,115,71.9,60.2,749,3210,82.6,68.8,37.7,1590,2260,103,242
"C[C@@H](Oc1cc(-c2cnn(C3CCNCC3)c2)cnc1N)c1c(Cl)ccc(F)c1Cl [Crizotinib] + CCCS(=O)(=O)Nc1ccc(F)c(C(=O)c2c[nH]c3ncc(Cl)cc23)c1F [PLX4720] (first compound 0.2 µM, partner dose 0.08 µM)",103,98.2,125,160,98.7,104,81.7,107,63.1,58.4,103,60.7,85.5,45.1
"O=C(O)[C@@H]1[O][Sb](=[O])([O][Sb]2(=[O])[O][C@H]([C@H](O)CO)[C@H](O)[C@H](C(=O)O)[O]2)[O][C@H]([C@H](O)CO)[C@@H]1O (stereo partly specified) [stibogluconate] + CS(=O)(=O)CCNCc1ccc(-c2ccc3ncnc(Nc4ccc(OCc5cccc(F)c5)c(Cl)c4)c3c2)o1 [lapatinib] (first compound 2 µM, partner dose 0.8 µM)",79.8,102,32.2,192,111,41.2,56.8,53.2,88.3,54.6,84.1,35.1,91.9,44.9
"CC(C)C[C@H](NC(=O)[C@H](Cc1ccccc1)NC(=O)c1cnccn1)B(O)O [Bortezomib] + O=C(O)c1ccc2c(c1)nc(Nc1cccc(Cl)c1)c1ccncc12 [CX4945] (first compound 0.001 µM, partner dose 0.4 µM)",254,327,212,239,40.6,30.4,126,279,213,474,143,46.7,691,213
"CNC(=O)c1cc(Oc2ccc(NC(=O)Nc3ccc(Cl)c(C(F)(F)F)c3)cc2)ccn1 [sorafenib] + C=CCNC1=C2C[C@@H](C)C[C@H](OC)[C@H](O)[C@@H](C)/C=C(\C)[C@H](OC(N)=O)[C@@H](OC)/C=C\C=C(/C)C(=O)NC(=CC1=O)C2=O [Tanespimycin] (first compound 0.4 µM, partner dose 0.002 µM)",51.3,97.4,34.8,74,85.4,153,49.3,209,61.5,177,95.2,30,87.8,104
"CC(C)C[C@H](NC(=O)[C@H](Cc1ccccc1)NC(=O)c1cnccn1)B(O)O [Bortezomib] + Nc1ccn([C@@H]2O[C@H](CO)[C@@H](O)C2(F)F)c(=O)n1 [gemcitabine] (first compound 0.001 µM, partner dose 0.0004 µM)",185,132,56.5,364,117,115,139,133,63.8,522,145,125,577,64.8
"CNC(=O)c1cc(Oc2ccc(NC(=O)Nc3ccc(Cl)c(C(F)(F)F)c3)cc2)ccn1 [sorafenib] + C#Cc1cccc(Nc2ncnc3cc(OCCOC)c(OCCOC)cc23)c1 [erlotinib] (first compound 0.4 µM, partner dose 0.8 µM)",74.6,63.9,164,38.3,43.3,80.1,33.5,204,133,105,142,89.5,83.5,117
"C[C@@H](Oc1cc(-c2cnn(C3CCNCC3)c2)cnc1N)c1c(Cl)ccc(F)c1Cl [Crizotinib] + CS(=O)(=O)CCNCc1ccc(-c2ccc3ncnc(Nc4ccc(OCc5cccc(F)c5)c(Cl)c4)c3c2)o1 [lapatinib] (first compound 0.2 µM, partner dose 0.8 µM)",31,193,167,174,86.5,100,29.3,192,131,1530,129,93.1,105,97.4
"O=C(O)c1ccc2c(c1)nc(Nc1cccc(Cl)c1)c1ccncc12 + Nc1ncn([C@H]2C[C@H](O)[C@@H](CO)O2)c(=O)n1 [decitabine] (first compound 0.4 µM, partner dose 0.1 µM)",104,47.6,95.8,76.6,248,54.3,69.6,75.3,325,190,96.6,196,122,98.7
"CNC(=O)c1cc(Oc2ccc(NC(=O)Nc3ccc(Cl)c(C(F)(F)F)c3)cc2)ccn1 [sorafenib] + Cn1c(Nc2ccc(C(F)(F)F)cc2)nc2cc(Oc3ccnc(-c4ncc(C(F)(F)F)[nH]4)c3)ccc21 [CHIR265] (first compound 0.4 µM, partner dose 0.08 µM)",42.2,133,151,78,47.5,216,39.9,138,651,39.5,134,69.5,109,43.6
"CN1CCN(c2ccc3nc(-c4c(N)c5c(F)cccc5[nH]c4=O)[nH]c3c2)CC1 [Dovitinib] + CCCS(=O)(=O)Nc1ccc(F)c(C(=O)c2c[nH]c3ncc(Cl)cc23)c1F [PLX4720] (first compound 0.1 µM, partner dose 0.08 µM)",162,56.9,116,102,48.1,79.7,143,132,109,6.33,126,207,83.5,236
"Cc1cc(Nc2cc(N3CCN(C)CC3)nc(/C=C/c3ccccc3)n2)n[nH]1 + C[C@]1(c2nc3c(C(N)=O)cccc3[nH]2)CCCN1 [Veliparib] (first compound 0.04 µM, partner dose 1.4 µM)",87.7,144,96.2,92.2,47.5,94.6,88,145,96.1,145,86.7,53.9,73,103
"O=C(O)c1ccc2c(c1)nc(Nc1cccc(Cl)c1)c1ccncc12 + OCc1c[nH]c2ccccc12 [Indole-3-carbinol] (first compound 0.4 µM, partner dose 0.8 µM)",157,217,48.4,97.1,79.3,118,76.6,99.1,73.5,119,87.9,245,98.9,33.6
"Cc1cc(Nc2cc(N3CCN(C)CC3)nc(/C=C/c3ccccc3)n2)n[nH]1 + CC(C)C[C@H](NC(=O)[C@H](Cc1ccccc1)NC(=O)c1cnccn1)B(O)O [Bortezomib] (first compound 0.04 µM, partner dose 0.001 µM)",80.8,127,184,50.8,167,48.2,17.1,103,122,66,117,81.5,165,96.2

# Laid out differently: entries from further up
Compound	cleaved PARP positive nuclei fraction (MZ2-MEL) [%]	cleaved PARP positive nuclei fraction (MeWo) [%]	cleaved PARP positive nuclei fraction (RPMI7951) [%]	cleaved PARP positive nuclei fraction (RVH-421) [%]	cleaved PARP positive nuclei fraction (SkMel28) [%]	cleaved PARP positive nuclei fraction (SkMel2) [%]	cleaved PARP positive nuclei fraction (SkMel30) [%]	cleaved PARP positive nuclei fraction (UACC62) [%]	cleaved PARP positive nuclei fraction (WM115) [%]	cleaved PARP positive nuclei fraction (WM1716) [%]	cleaved PARP positive nuclei fraction (WM1745) [%]	cleaved PARP positive nuclei fraction (WM3526) [%]	cleaved PARP positive nuclei fraction (WM3619) [%]	cleaved PARP positive nuclei fraction (WM451Lu) [%]
C[C@@H](Oc1cc(-c2cnn(C3CCNCC3)c2)cnc1N)c1c(Cl)ccc(F)c1Cl [Crizotinib] + CS(=O)(=O)CCNCc1ccc(-c2ccc3ncnc(Nc4ccc(OCc5cccc(F)c5)c(Cl)c4)c3c2)o1 [lapatinib] (first compound 0.2 µM, partner dose 0.8 µM)	31	193	167	174	86.5	100	29.3	192	131	1530	129	93.1	105	97.4
O=C(O)c1ccc2c(c1)nc(Nc1cccc(Cl)c1)c1ccncc12 + Nc1ncn([C@H]2C[C@H](O)[C@@H](CO)O2)c(=O)n1 [decitabine] (first compound 0.4 µM, partner dose 0.1 µM)	104	47.6	95.8	76.6	248	54.3	69.6	75.3	325	190	96.6	196	122	98.7
CNC(=O)c1cc(Oc2ccc(NC(=O)Nc3ccc(Cl)c(C(F)(F)F)c3)cc2)ccn1 [sorafenib] + Cn1c(Nc2ccc(C(F)(F)F)cc2)nc2cc(Oc3ccnc(-c4ncc(C(F)(F)F)[nH]4)c3)ccc21 [CHIR265] (first compound 0.4 µM, partner dose 0.08 µM)	42.2	133	151	78	47.5	216	39.9	138	651	39.5	134	69.5	109	43.6
